Measurements published in paper PMC6325625, “The traffic ATPase PilF interacts with the inner membrane platform of the DNA translocator and type IV pili from Thermus thermophilus” (FEBS Open Bio, 2018).
Results are given in words; binding and its absence hold for the method and conditions named. Binding can be weak; no strength is given. Sequences can lack the tags named with a protein. For some assays here: In cells and extracts the contact can be indirect.

Protein sequences, listed by entry. Tags and fused reporters are not part of them. Lines headed by an entry give the natural chain unless they say otherwise; changes in a name come on top.
UniProt Q8VRL6: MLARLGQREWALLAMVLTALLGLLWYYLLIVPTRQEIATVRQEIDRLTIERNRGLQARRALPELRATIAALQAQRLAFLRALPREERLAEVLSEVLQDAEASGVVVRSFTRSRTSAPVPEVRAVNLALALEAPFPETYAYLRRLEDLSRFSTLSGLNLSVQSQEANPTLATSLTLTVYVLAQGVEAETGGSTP
UniProt Q8VRL7: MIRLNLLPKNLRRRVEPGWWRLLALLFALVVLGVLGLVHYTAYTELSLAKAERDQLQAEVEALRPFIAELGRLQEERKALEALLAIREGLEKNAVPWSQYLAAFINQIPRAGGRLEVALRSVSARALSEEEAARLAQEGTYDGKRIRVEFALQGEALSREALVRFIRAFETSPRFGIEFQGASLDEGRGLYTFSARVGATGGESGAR

T1: Strep-PilM (N-terminally Strep-tagged PilM) (Thermus thermophilus HB27) (UniProt Q8VRL8)
T1 sequence: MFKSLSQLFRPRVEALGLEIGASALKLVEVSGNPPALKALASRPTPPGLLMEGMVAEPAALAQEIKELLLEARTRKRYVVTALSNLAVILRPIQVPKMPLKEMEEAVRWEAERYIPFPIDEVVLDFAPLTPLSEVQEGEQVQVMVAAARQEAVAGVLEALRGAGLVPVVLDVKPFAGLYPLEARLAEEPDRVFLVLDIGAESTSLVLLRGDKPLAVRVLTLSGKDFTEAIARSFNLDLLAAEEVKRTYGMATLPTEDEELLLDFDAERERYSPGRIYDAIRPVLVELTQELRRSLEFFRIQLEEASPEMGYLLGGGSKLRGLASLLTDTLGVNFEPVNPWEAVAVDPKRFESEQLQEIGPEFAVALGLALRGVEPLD

B1: His6-PilM (co-produced with PilN and PilO-Strep from pET28a-PilMNO) (protein, UniProt Q8VRL8 1-377)
chain: MFKSLSQLFRPRVEALGLEIGASALKLVEVSGNPPALKALASRPTPPGLLMEGMVAEPAALAQEIKELLLEARTRKRYVVTALSNLAVILRPIQVPKMPLKEMEEAVRWEAERYIPFPIDEVVLDFAPLTPLSEVQEGEQVQVMVAAARQEAVAGVLEALRGAGLVPVVLDVKPFAGLYPLEARLAEEPDRVFLVLDIGAESTSLVLLRGDKPLAVRVLTLSGKDFTEAIARSFNLDLLAAEEVKRTYGMATLPTEDEELLLDFDAERERYSPGRIYDAIRPVLVELTQELRRSLEFFRIQLEEASPEMGYLLGGGSKLRGLASLLTDTLGVNFEPVNPWEAVAVDPKRFESEQLQEIGPEFAVALGLALRGVEPLD

How the values were obtained:
[1] = target: T1, Strep-PilM (N-terminally Strep-tagged PilM) (Thermus thermophilus HB27); assay: pull-down; Strep-tagged bait bound to 1 mL Strep-Tactin column, 500 μg purified PilF in 1 mL bicine buffer (100 mM bicine, 200 mM NaCl, 0.02% DDM, pH 8.5) co-incubated 15 min at room temperature; ten washes with MN buffer with 0.02% DDM; eluted with 2.5 mM D-desthiobiotin; SDS/PAGE, Coomassie; both purified
[2] = target: PilO-Strep (Thermus thermophilus) (UniProt Q8VRL6); assay: co-purification (Strep-Tactin affinity chromatography); His6-PilM, PilN and PilO-Strep co-produced in E. coli; membranes solubilised with DDM; Strep-Tactin column in MNO buffer pH 8.0, then Superdex 200; SDS/PAGE and western blot (antisera against PilM and PilN, Strep-Tactin HRP for PilO-Strep)
[3] = target: PilO-Strep (Thermus thermophilus) (UniProt Q8VRL6); assay: native gel or EMSA; 5-20% clear-native PAGE of purified His6-PilMN-Strep, His6-PilMNO-Strep and His6-PilM; bands of PilMN cut out and run on 14% SDS/PAGE; both purified

Row | Molecule | binding [1] | binding [2] | binding [3]
1 | His6-PilF (traffic ATPase PilF, hexameric complex) (Thermus thermophilus) (enzyme) | binds | – | –
2 | PilN (untagged, co-produced from pET28a-PilMNO) (from UniProt Q8VRL7) | – | binds | binds
3 | B1 | – | binds | binds
